From ChEMBL document CHEMBL3988442, “University of Dundee, Small-Polar-MMV Screening Library” (2021).

Chains of the proteins cited; added tags and fusions are not shown.
UniProt E9BF75, entry or part of it: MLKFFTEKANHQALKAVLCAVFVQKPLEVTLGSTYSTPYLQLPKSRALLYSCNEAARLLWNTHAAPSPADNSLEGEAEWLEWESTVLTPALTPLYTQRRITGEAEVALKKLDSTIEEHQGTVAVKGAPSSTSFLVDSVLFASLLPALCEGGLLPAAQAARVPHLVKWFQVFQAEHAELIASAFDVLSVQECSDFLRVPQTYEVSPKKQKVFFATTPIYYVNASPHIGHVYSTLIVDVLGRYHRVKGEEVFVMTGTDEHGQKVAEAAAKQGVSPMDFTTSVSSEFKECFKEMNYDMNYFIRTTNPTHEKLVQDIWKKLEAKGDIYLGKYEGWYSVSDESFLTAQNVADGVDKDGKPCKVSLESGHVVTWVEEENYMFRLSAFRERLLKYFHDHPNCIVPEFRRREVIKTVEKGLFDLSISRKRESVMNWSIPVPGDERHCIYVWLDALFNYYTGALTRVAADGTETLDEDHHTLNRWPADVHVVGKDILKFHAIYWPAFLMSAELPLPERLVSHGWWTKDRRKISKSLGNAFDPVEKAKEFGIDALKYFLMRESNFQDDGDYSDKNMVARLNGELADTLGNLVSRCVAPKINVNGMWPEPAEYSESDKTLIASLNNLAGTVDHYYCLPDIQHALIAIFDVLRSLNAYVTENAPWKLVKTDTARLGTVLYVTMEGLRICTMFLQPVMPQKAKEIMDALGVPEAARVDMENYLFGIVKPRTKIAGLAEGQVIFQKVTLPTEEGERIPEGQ

Mtb heat-shock: 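Assay on Mycobacterium tuberculosis, filed only as a heat shock assay from Cornell; the read-out is not stated. The concentration is filed as 10 mM, unlikely as a test dose, so the dose is not known. The record gives no direction; compounds that gave an IC50 in retests scored well above the rest, so higher reads as stronger inhibition. Size under these conditions: about 69,000 compounds, about 930 of them at 50% or above in at least one test.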
LdMetRS: 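Primary screen of methionyl-tRNA synthetase; the read-out is not stated. Target: Methionyl-tRNA synthetase (putative), Leishmania donovani (UniProt E9BF75). The test concentration is not given. The values are filed as inhibition. Of about 68,000 compounds tested this way, about 24 (0.035%) reached 50% or more in at least one test.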
Mtb growth Cornell: 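Whole-cell assay for inhibitors of Mycobacterium tuberculosis growth, labelled Cornell in the record; the read-out is not stated. The concentration is filed as 10 mM, unlikely as a test dose, so the dose is not known. The record gives no direction; compounds strong in two other growth screens of this library score well above the rest, so higher reads as stronger inhibition. About 53,000 compounds were tested under these conditions; 1.7% (about 900) showed 50% or more at least once.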

All values are in %. The controls that fix the scale are not given in the record; negative values are as filed. The compounds are a random part of those screened. A dash means the value is not listed here; it may have been measured.

| compound | Mtb heat-shock | LdMetRS | Mtb growth Cornell |
|---|---|---|---|
| `NCCCNS(=O)(=O)Cc1ccc(Br)cc1` | - | 16.43 | - |
| `COc1ncc(NC(=O)c2ccco2)c(OC)n1` | -17.25 | 0.7194 | -45.56 |
| `Clc1ccc(-n2nnnc2C2(NCc3ccco3)CCCCC2)cc1` | 11.09 | 20.12 | 19.06 |
| `CC(OCC(F)(F)F)C(=O)N1CCCCC1` (stereo not shown) | -8.344 | 9.36 | -50.95 |
| `Cc1cnc(CNC(=O)N(CCCO)C2CCc3ccccc32)s1` (stereo not shown) | -3.839 | 10.24 | - |
| `C[C@@H]1CN(C(=O)CCN2CCOCC2)CC[C@]1(C)O` | 9.632 | 0.2577 | 10.38 |
| `Cc1ccc(CN2CCC(O)(Cn3nc(-c4cccs4)oc3=O)CC2)o1` | - | 16.49 | - |
| `[H][C@@]12OCCN(C(=O)c3ccccc3F)[C@@]1([H])CC[C@H]2OCCN(C)C` | -41.17 | - | - |
| `Oc1cc(CNCCCN2CCCC2)nc2ccc(F)cc12` | -16.8 | 15.47 | -1.118 |
| `CN(C)Cc1nc(C(C)(C)NC(=O)c2ccnn2C)no1` | 7.541 | 0.8021 | - |
| `CN1CCN(C(=O)C2CCN(c3cccnn3)C2)CC1` (stereo not shown) | 5.22 | 8.36 | 6.439 |
| `O=C(c1ccsc1)N1C[C@H]2CN(Cc3cccc(F)c3)C(=O)[C@H]2C1` | - | 17.04 | - |
| `O=c1[nH]c2nc(NCC3CCCO3)ncc2c(=O)n1-c1ccc(F)cc1` (stereo not shown) | 0.5741 | 12.42 | 1.482 |
| `O=C(O)C(F)(F)F.O=C(O)C(F)(F)F.O=C(O)C(F)(F)F.[H][C@@]12CO[C@@H](CN3CCN(C)CC3)[C@]1([H])CCN(Cc1ccc(C)s1)C2` | -22 | - | - |
| `Cc1nc[nH]c1CN1CCN(C(=O)C2CC2)[C@H]2CS(=O)(=O)C[C@H]21` | - | 16.21 | - |
| `CCC(CN1CCCCC1)NC(=O)C1(c2cccc(F)c2)CC1` (stereo not shown) | - | 16.56 | - |
| `CCc1ccc(C(=O)N2CCCC3(CCCC(=O)N3C)C2)cc1` (stereo not shown) | 2.376 | 14.42 | 29.32 |
| `CNC(=O)c1nnn(-c2ccccc2F)c1-c1ccccn1` | -0.6028 | 14.39 | 19.36 |
| `Cn1cc(NC(=O)CNC(=O)N2CCN(c3cccc(Cl)c3)CC2)cn1` | 3.258 | 12.87 | 26.4 |
| `CN(Cc1cn2c(n1)CN(CC1CC1)CC2)Cc1ccco1` | - | 21.95 | - |
| `CCCN(CC(=O)N1CCNCC1)C(=O)c1cccc(Cl)c1` | - | 20.99 | - |
| `[H][C@@]12OCCN(C(=O)c3nn(C)c4ccccc34)[C@@]1([H])CC[C@H]2OC` | 27.42 | - | -24 |
| `Cc1cnc(NC(=O)c2cccc(CN(C)Cc3ccno3)c2)s1` | 6.699 | 3.351 | -14.16 |
| `COc1cc(Br)c(CNC2CCCNC2=O)cc1OC` (stereo not shown) | - | 1.289 | - |
| `CC(=O)N1CCCN(C(=O)Nc2ccccc2N2CCOC2=O)CC1` | 7.901 | 14.93 | - |
| `CO[C@@H]1CC[C@H]2[C@H]1OCCN2CC1CCOCC1` | - | 12.38 | - |
| `Cc1noc(C)c1CN1CCN(C(=O)Cn2cncn2)CC1` | -5.661 | 13.01 | -14.22 |
| `CN1CCCN(S(=O)(=O)c2cn(C)cn2)c2cc(Cl)ccc21` | -5.88 | 3.125 | - |
| `Fc1ccc2[nH]c(CO[C@H]3CN(CC4CC4)C[C@H]3F)nc2c1` | -3.549 | 15.04 | 1.244 |
| `CCn1cc(Cn2cc(Cl)c(N)n2)c(C)n1` | 0.3011 | 11.28 | - |
| `CCN(CC)C(=O)c1nc2c(s1)CCN(Cc1cccc(OC)c1)CC2.O=C(O)C(F)(F)F` | -13.37 | - | 36.37 |
| `O=C(CN1CCN(CCO)CC1)NCCc1c(F)cccc1F` | 12.4 | 10.12 | -1.577 |
| `NC(=O)c1nc(-c2ccc(Cl)cc2Cl)oc1N` | 2.232 | 10.75 | 23.17 |
| `CCc1csc(CNC(=O)C(CC)n2cccn2)n1` (stereo not shown) | -1.236 | 2.29 | 31.61 |
| `COC(=O)C(CCSC)NC(=O)Cc1c(C)nn(-c2ccccc2)c1C` (stereo not shown) | -19.89 | 11.8 | 87.19 |
| `COCCN(C(=O)c1ccccn1)c1nc2c(s1)CCc1c-2cnn1C` | 15.96 | 16.15 | 33.75 |
| `COc1ccc(Cn2cc(C(=O)N(C)Cc3cnccn3)nn2)cc1` | -28.58 | 13.4 | 38.56 |
| `Cc1cnc(CCN(C)C(=O)c2cccc(N(C)C)c2)s1` | -6.445 | -3.284 | -31.6 |
| `COC(=O)c1cccc(OCCn2nc(-c3cccs3)oc2=O)c1` | 6.972 | -2.222 | 28.53 |
| `CC(OCC1CC1)C(=O)N1CCCN(Cc2nccn2C(C)C)CC1` (stereo not shown) | -3.727 | 14.61 | 14.16 |
| `Cc1ccc(CN2Cc3nnn(C)c3C(COCC(=O)N(C)C)C2)s1` (stereo not shown) | - | 15.23 | - |
| `COc1ccc(CC(=O)N2CCN(Cc3ccco3)C[C@@H]2C)cc1` | -12.84 | 16.82 | 4.283 |
| `CC1(C)CN(C(=O)c2cnc(-c3ccccn3)nc2)CC[C@]1(C)O` | 6.677 | 8.462 | -29.72 |
| `CC(NCCCn1cccn1)c1ccc(N2CCCS2(=O)=O)cc1` (stereo not shown) | -23.81 | 7.519 | 22.06 |
| `Cc1noc(OCCOc2ccc(C#N)cc2)n1` | -7.14 | 11.68 | 23.97 |
| `O=C(NCCN1CCCCCC1=O)c1ccn(-c2ccc(F)cc2)n1` | 1.295 | 7.843 | 8.341 |
| `CN(C(=O)Cc1ccc2c(c1)OCCO2)C1CCCCC1` | 12.01 | 8.877 | 4.753 |
| `CN(C)S(=O)(=O)N1CCC[C@]2(C[C@@H](Oc3ccccn3)CO2)C1` | - | 18.63 | - |

The first 6 entries again:

compound,Mtb heat-shock,LdMetRS,Mtb growth Cornell
NCCCNS(=O)(=O)Cc1ccc(Br)cc1,-,16.43,-
COc1ncc(NC(=O)c2ccco2)c(OC)n1,-17.25,0.7194,-45.56
Clc1ccc(-n2nnnc2C2(NCc3ccco3)CCCCC2)cc1,11.09,20.12,19.06
CC(OCC(F)(F)F)C(=O)N1CCCCC1 (stereo not shown),-8.344,9.36,-50.95
Cc1cnc(CNC(=O)N(CCCO)C2CCc3ccccc32)s1 (stereo not shown),-3.839,10.24,-
C[C@@H]1CN(C(=O)CCN2CCOCC2)CC[C@]1(C)O,9.632,0.2577,10.38